Assay type: in vivo, male Swiss albino mice
Settings: subcutaneous
Procedure: The percent change is calculated according to the following equation: % change=100- (no. of writhes in treated group/no. of writhes in control group)×100.

CN1CC[C@]23c4c5ccc(O)c4O[C@H]2[C@@H](O)C=C[C@H]3[C@H]1C5.O=S(=O)(O)O [Morphine Sulfate, reference compound]
Analgesic action, inhibition action on phenylquinone writhing: dose giving 50 % inhibition (30 min before phenyl-p-benzoquinone, dose with 50 % inhibition): 0.038 mg/kg
Analgesic action, inhibition action on phenylquinone writhing, % inhibition (at the dose listed for the substance under E1): 50%

— US4468403A, “Analgesic substituted piperidylidene-2-sulfon(cyan)amide derivatives” (priority 1982, dated 1984)
